Drawing on publication PMC12501846, this text covers binding for three substances.

Sequences of proteins named here, by UniProt entry; tags and fusion partners are left off. A change or cut given only in a name is not applied to a line headed by its entry.
UniProt P35222: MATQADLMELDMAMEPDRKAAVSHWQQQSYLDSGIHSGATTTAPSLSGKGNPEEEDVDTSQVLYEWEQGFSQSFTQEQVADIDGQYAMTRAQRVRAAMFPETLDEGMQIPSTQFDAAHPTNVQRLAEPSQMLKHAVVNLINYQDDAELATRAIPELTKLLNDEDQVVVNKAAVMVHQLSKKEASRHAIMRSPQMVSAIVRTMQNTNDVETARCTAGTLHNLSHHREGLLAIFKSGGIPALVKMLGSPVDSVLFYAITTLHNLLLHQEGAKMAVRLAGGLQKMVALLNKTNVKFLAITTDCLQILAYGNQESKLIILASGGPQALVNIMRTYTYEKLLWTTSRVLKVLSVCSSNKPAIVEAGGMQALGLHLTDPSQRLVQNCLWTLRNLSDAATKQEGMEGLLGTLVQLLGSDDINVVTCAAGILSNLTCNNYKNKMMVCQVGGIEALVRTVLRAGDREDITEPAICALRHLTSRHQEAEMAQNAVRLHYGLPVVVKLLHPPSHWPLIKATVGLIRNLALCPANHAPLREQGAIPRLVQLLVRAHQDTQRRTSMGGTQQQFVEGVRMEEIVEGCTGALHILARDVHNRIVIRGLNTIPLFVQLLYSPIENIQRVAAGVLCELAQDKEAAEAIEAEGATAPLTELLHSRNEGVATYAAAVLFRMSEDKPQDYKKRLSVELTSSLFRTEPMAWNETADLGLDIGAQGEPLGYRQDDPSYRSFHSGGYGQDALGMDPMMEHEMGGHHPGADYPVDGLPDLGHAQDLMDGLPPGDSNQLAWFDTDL
UniProt P70288: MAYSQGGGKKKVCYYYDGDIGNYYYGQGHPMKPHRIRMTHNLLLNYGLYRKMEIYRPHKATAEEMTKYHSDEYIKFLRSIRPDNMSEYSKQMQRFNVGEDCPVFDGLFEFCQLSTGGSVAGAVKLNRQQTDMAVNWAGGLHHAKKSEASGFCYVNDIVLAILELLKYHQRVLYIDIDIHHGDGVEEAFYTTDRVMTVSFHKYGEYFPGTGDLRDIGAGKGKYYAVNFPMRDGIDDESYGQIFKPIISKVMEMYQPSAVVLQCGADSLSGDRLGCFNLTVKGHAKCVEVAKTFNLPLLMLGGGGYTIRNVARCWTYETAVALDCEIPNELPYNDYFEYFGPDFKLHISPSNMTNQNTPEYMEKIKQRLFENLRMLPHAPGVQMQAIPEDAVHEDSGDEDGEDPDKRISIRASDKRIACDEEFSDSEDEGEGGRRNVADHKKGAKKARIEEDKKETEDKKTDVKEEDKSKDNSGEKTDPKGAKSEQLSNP

No constants are given. Whether binding was seen depends on the method and setting. Binding seen in cells or lysates may run through a third protein. Some binding calls cover weakened binding; strength is not graded here.

For test [1], the target named is T1, Tcf3, endogenous (mouse (endogenous in ESCs)) (UniProt Q9Z1J1).
T1 sequence: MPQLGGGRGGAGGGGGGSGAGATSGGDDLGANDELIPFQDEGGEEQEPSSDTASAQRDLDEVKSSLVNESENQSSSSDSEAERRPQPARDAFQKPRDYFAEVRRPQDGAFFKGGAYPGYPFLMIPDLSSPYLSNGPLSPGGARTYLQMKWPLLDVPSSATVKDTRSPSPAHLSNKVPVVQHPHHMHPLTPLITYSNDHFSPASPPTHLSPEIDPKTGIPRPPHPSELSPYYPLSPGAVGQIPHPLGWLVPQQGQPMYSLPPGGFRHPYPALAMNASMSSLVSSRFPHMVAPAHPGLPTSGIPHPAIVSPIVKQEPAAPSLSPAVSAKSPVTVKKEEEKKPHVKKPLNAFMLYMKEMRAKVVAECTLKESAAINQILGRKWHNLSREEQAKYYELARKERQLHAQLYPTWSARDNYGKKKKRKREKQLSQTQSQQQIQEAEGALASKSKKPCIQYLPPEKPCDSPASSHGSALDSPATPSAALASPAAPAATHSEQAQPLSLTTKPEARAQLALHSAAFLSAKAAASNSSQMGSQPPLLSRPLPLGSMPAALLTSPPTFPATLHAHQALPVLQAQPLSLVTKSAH
Nature of the test: co-IP; ESCs ectopically expressing Ctnnb1 S33Y, K49R or K49Q, followed by IP; binding to Nanog or Tcf3.

Test [2] deals with T2, Nanog, endogenous (mouse (endogenous in ESCs and EpiSCs)) (UniProt Q80Z64).
T2 sequence: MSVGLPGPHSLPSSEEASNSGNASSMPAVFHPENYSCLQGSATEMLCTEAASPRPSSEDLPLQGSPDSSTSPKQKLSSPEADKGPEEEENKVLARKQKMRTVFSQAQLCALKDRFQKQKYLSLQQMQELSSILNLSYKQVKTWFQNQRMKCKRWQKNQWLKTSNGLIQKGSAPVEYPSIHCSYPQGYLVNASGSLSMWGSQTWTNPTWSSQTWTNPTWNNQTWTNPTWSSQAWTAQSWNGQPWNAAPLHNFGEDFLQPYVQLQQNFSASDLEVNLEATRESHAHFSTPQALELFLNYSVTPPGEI
Description: co-IP; IP of Nanog and HDAC2 from ESCs with forced expression of each Ctnnb1 mutant.

“HA-Ctnnb1 S33Y (stabilized form of Ctnnb1) (from UniProt P35222 1-781)”: the binding result in test [1] was “binds”.

In the case of “HA-Ctnnb1 S33Y K49Q (acetylation mimic) (from UniProt P35222 1-781)”, the binding entry in test [1] is given as “binds”.

On to “HDAC2, endogenous (from UniProt P70288 1-488)”, for which the binding entry in test [2] is recorded as “binds”.
